# Laboratory results: PubChem BioAssay AID1259308 (NCATS, 2017)
# Assay: 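Genes whose loss raises luciferase production in HEK293 cells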 (primary screen)
# Cells: human HEK293 embryonic kidney cells stably expressing firefly luciferase (HEK-CMV-Luc2-Hygro)
# Reagent: single siRNA against human genes, 0.8 pmol siRNA per well
# Time to read-out: 72 h
# Read-out: 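Luciferase light (ONE-Glo) measured on one replicate plate set and viability (CellTiter-Glo) on the other, scaled to a negative control siRNA, with robust z-scores and luciferase per cell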
# Direction: total luciferase, z-score and total luciferase, % of control: higher = more reporter protein produced; luciferase per cell, z-score: higher = more reporter output per viable cell; viable cells, % of control: higher = more viable cells
# Hit rule: 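An siRNA counts as active if its total luciferase robust z-score exceeds 3; genes with two or more such siRNAs out of three were retested with fresh siRNAs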
# Meaning of the calls: active = raised luciferase; inactive = no rise
# In all, the deposit lists about 59,000 reagents; this is an unselected part. Of all reagents, about 1,510 (2.6%) are marked active. 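Calls use total luciferase alone and ignore viability, so some active siRNAs may act by altering cell number.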 The numbers tell different reagents against one gene apart. No sequences are given here.
target,reagent no.,"total luciferase, z-score","total luciferase, % of control","luciferase per cell, z-score","viable cells, % of control",outcome
PSTK (phosphoseryl-tRNA kinase),1,-1.38,54.4,-1.05,80.1,inactive
PSTK (phosphoseryl-tRNA kinase),2,1.37,109,1.1,91.4,inactive
PSTK (phosphoseryl-tRNA kinase),3,-0.793,66.1,-0.897,93.6,inactive
SFTA3 (surfactant associated 3),1,0.34,88.6,0.0735,97.2,inactive
SFTA3 (surfactant associated 3),2,-0.408,73.8,-0.382,91.2,inactive
SFTA3 (surfactant associated 3),3,1.21,106,1.87,72.3,inactive
BLTP3B (bridge-like lipid transfer protein family member 3B),1,0.949,101,0.853,89.9,inactive
BLTP3B (bridge-like lipid transfer protein family member 3B),2,1.45,111,1.03,94.3,inactive
BLTP3B (bridge-like lipid transfer protein family member 3B),3,-0.243,77.1,-0.0776,87.9,inactive
FCGR2A (Fc gamma receptor IIa),1,2.29,127,1.08,107,inactive
FCGR2A (Fc gamma receptor IIa),2,-0.227,77.4,-1.32,122,inactive
FCGR2A (Fc gamma receptor IIa),3,1.38,109,1.41,84.2,inactive
FASTKD5 (FASTK mitochondrial RNA regulator 5),1,0.39,89.6,0.95,78,inactive
FASTKD5 (FASTK mitochondrial RNA regulator 5),2,0.153,84.9,0.271,88.4,inactive
FASTKD5 (FASTK mitochondrial RNA regulator 5),3,-0.319,75.6,-0.557,97.8,inactive
S100PBP (S100P binding protein),1,-2.06,40.9,-1.37,65.7,inactive
S100PBP (S100P binding protein),2,-0.874,64.5,-0.644,85.4,inactive
S100PBP (S100P binding protein),3,1.69,116,1.33,90.9,inactive
ACOT13 (acyl-CoA thioesterase 13),1,-2.56,30.9,-1.91,57.1,inactive
ACOT13 (acyl-CoA thioesterase 13),2,-0.694,68.1,-1.04,99.9,inactive
ACOT13 (acyl-CoA thioesterase 13),3,-1.25,57,-1.96,107,inactive
SYNRG (synergin gamma),1,-1.02,61.7,-0.477,78.2,inactive
SYNRG (synergin gamma),2,2.67,135,1.62,98.4,inactive
SYNRG (synergin gamma),3,-0.166,78.6,-0.0585,89.2,inactive

Copied from the list:
For “total luciferase, z-score”, SYNRG (synergin gamma) #2 has 2.67
ACOT13 (acyl-CoA thioesterase 13) #2, luciferase per cell, z-score: -1.04
For “viable cells, % of control”, S100PBP (S100P binding protein) #3 shows 90.9

Next results follow:
target,reagent no.,"total luciferase, z-score","total luciferase, % of control","luciferase per cell, z-score","viable cells, % of control",outcome
TENT5B (terminal nucleotidyltransferase 5B),1,0.189,85.7,0.415,85.8,inactive
TENT5B (terminal nucleotidyltransferase 5B),2,0.0727,83.3,0.611,79.3,inactive
TENT5B (terminal nucleotidyltransferase 5B),3,0.538,92.6,0.101,101,inactive
OXLD1 (oxidoreductase like domain containing 1),1,0.594,93.7,0.442,93.2,inactive
OXLD1 (oxidoreductase like domain containing 1),2,0.908,99.9,0.858,89.1,inactive
OXLD1 (oxidoreductase like domain containing 1),3,-0.0924,80,2.61,45,inactive
C2CD4A (C2 calcium dependent domain containing 4A),1,-0.742,67.1,-0.272,80.6,inactive
C2CD4A (C2 calcium dependent domain containing 4A),2,-0.0209,81.5,-0.324,99.1,inactive
C2CD4A (C2 calcium dependent domain containing 4A),3,-0.941,63.2,-0.911,89.7,inactive
SHMT2 (serine hydroxymethyltransferase 2),1,2.73,136,2.12,87,inactive
SHMT2 (serine hydroxymethyltransferase 2),2,0.349,88.8,0.154,95.3,inactive
SHMT2 (serine hydroxymethyltransferase 2),3,-0.843,65.1,-0.753,88.7,inactive
ABHD14B (abhydrolase domain containing 14B),1,0.361,89.1,-0.362,109,inactive
ABHD14B (abhydrolase domain containing 14B),2,-0.408,73.8,-0.447,92.7,inactive
ABHD14B (abhydrolase domain containing 14B),3,-0.599,70,-0.375,86.3,inactive
SLC16A1,1,-1.1,60,-1.25,93.1,inactive
SLC16A1,2,-1.81,45.8,-2.57,101,inactive
SLC16A1,3,1.45,111,1.22,89.6,inactive
ATP6V1G1 (ATPase H+ transporting V1 subunit G1),1,-0.577,70.4,-0.358,86.4,inactive
ATP6V1G1 (ATPase H+ transporting V1 subunit G1),2,1.89,119,1.5,89.8,inactive
ATP6V1G1 (ATPase H+ transporting V1 subunit G1),3,0.192,85.7,0.785,77.9,inactive
KRTAP4-5 (keratin associated protein 4-5),1,0.0442,82.8,-0.607,109,inactive
KRTAP4-5 (keratin associated protein 4-5),2,-0.136,79.2,-0.328,96.5,inactive
KRTAP4-5 (keratin associated protein 4-5),3,2.68,135,2.25,83.6,inactive
ZNF569 (zinc finger protein 569),1,1.93,120,2.29,73.6,inactive
ZNF569 (zinc finger protein 569),2,-0.324,75.4,-0.606,98.9,inactive
ZNF569 (zinc finger protein 569),3,0.821,98.2,0.937,85.8,inactive
CSHL1 (chorionic somatomammotropin hormone like 1),1,0.132,84.5,-0.445,106,inactive
CSHL1 (chorionic somatomammotropin hormone like 1),2,-0.56,70.8,-0.994,103,inactive
CSHL1 (chorionic somatomammotropin hormone like 1),3,-0.322,75.5,-0.259,90.3,inactive
SLCO1A2,1,-0.25,76.9,-0.486,97.7,inactive
SLCO1A2,2,-0.212,77.7,-0.0219,87.3,inactive
SLCO1A2,3,0.801,97.8,0.221,103,inactive
